Measurements published in patent US20120028811.

Amino acid sequences for entries named in this document (tags omitted). A change or cut given only in a name is not applied to a line headed by its entry.
UniProt P13393: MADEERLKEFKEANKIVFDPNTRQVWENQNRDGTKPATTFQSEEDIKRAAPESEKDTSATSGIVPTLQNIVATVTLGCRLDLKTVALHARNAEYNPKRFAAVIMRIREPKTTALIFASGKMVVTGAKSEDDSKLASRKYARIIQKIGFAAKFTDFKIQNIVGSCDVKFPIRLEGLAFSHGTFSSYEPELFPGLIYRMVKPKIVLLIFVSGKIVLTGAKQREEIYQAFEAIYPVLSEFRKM

How the values were obtained:
[1] = biological target: TATA-binding protein (TBP) (UniProt P13393); assay: EMSA; conditions: CITED earlier measurement for TBPApt #17 (same variable sequence); purified recombinant protein; label: Cy3 (3'-end, Cy3-dUTP by TdT)
[2] = biological target: TATA-binding protein (TBP) (UniProt P13393); assay: binding assay; conditions: sol-gel array; lower binding activity than ms-6.16; purified recombinant protein; label: Cy3 (3'-end, Cy3-dUTP by TdT)

| Sequence | binding result [1] | binding result [2] |
| --- | --- | --- |
| ACGACACCGAAGGCGCCCCGAAGGGGGGCAAGGAGCCAUACCAAACCAGG [ms-6.16 (= TBPApt #17)] | binds |  |
| CAUGGGCAAGACAAGACAAAUACUGUCAGUCGACCAUGAGCCUGACCGCC [ms-6.4] |  | binds |

The exact form of at least one protein or probe is not confirmed.
